Reference: PubChem BioAssay AID1259308 (NCATS, 2017)
Screen: 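Genes whose loss raises luciferase production in HEK293 cells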 (primary screen). System: human HEK293 embryonic kidney cells stably expressing firefly luciferase (HEK-CMV-Luc2-Hygro). Reagent: single siRNA against human genes, 0.8 pmol siRNA per well. Duration: 72 h. Measured: 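Reporter luminescence and viable-cell signal on separate replicate plates, given as percent of non-targeting control and median/MAD z-scores, plus per-cell luciferase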. Direction: total luciferase, z-score and total luciferase, % of control: higher = more reporter protein produced; luciferase per cell, z-score: higher = more reporter output per viable cell; viable cells, % of control: higher = more viable cells. Hit rule: 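Active when the median/MAD z-score for overall luciferase is greater than 3; a gene was taken forward for validation with new siRNAs if at least two of its three siRNAs passed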. Meaning of the calls: active = raised luciferase; inactive = no rise.
Here is a random part of about 59,000 deposited reagents. Over the whole deposit, about 1,510 (2.6%) were called active. 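Calls use total luciferase alone and ignore viability, so some active siRNAs may act by altering cell number.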 Entries without a mark were called inactive. Reagents against one gene are numbered here.

gene,siRNA no.,"total luciferase, z-score","total luciferase, % of control","luciferase per cell, z-score","viable cells, % of control"
RLIM,1,0.55,92.8,0.978,80.2
RLIM,2,1.3,108,2.73,58.8
RLIM,3,-1.47,52.7,-1.68,91.7
DSCC1,1,-0.703,67.9,-0.848,94.9
DSCC1,2,-0.371,74.5,-0.66,99.1
DSCC1,3,0.286,87.6,0.315,90.1
CFAP77,1,0.256,87,-0.0822,99.3
CFAP77,2,-0.108,79.7,-0.467,101
CFAP77,3,0.3,87.8,-0.473,111
CYP1B1,1,0.946,101,0.344,103
CYP1B1,2,2.06,123,1.39,95.2
CYP1B1,3,0.388,89.6,-0.103,103
RFPL4A,1,0.188,85.6,0.391,86.3
RFPL4A,2,1.93,120,1.31,95
RFPL4A,3,0.494,91.7,0.034,102
EEF1B2P3,1,-0.00294,81.8,0.332,83.8
EEF1B2P3,2,1.05,103,0.378,104
EEF1B2P3,3,0.147,84.8,-0.392,105
FAM43A,1,0.289,87.6,-0.332,107
FAM43A,2,0.865,99.1,0.621,94
FAM43A,3,1.11,104,0.53,101
ELOVL7,1,1.12,104,0.916,91.4
ELOVL7,2,1.28,107,0.603,102
ELOVL7,3,-0.322,75.5,-0.235,89.7
SBF2-AS1,1,0.51,92,0.518,89.7
SBF2-AS1,2,-0.446,73,-0.446,91.8
SBF2-AS1,3,-0.328,75.4,-0.4,93.6
PRDM6,1,1.03,102,1.31,81.1
PRDM6,2,0.0575,83,-0.638,110
PRDM6,3,0.264,87.1,0.741,80.1
LINC02609,1,0.0548,83,0.859,74
LINC02609,2,-0.457,72.8,-0.404,90.5
LINC02609,3,-0.285,76.2,-0.434,95.5
RFC4,1,0.967,101,0.597,96.6
RFC4,2,-0.594,70.1,0.0972,76.3
RFC4,3,0.382,89.5,-0.0274,101
DUSP8,1,-1.16,58.8,-1.58,99.5
DUSP8,2,0.132,84.5,0.00559,94.3
DUSP8,3,-1.76,46.8,-1.94,87

The list goes on, starting with the last 3 of the part before.
gene,siRNA no.,"total luciferase, z-score","total luciferase, % of control","luciferase per cell, z-score","viable cells, % of control"
DUSP8,1,-1.16,58.8,-1.58,99.5
DUSP8,2,0.132,84.5,0.00559,94.3
DUSP8,3,-1.76,46.8,-1.94,87
CHURC1,1,0.351,88.9,-0.291,107
CHURC1,2,-0.00364,81.8,-0.352,100
CHURC1,3,1.72,116,1.25,93.2
POGK,1,-1.53,51.5,-1.28,80.7
POGK,2,0.416,90.2,1.43,69.2
POGK,3,-0.0458,81,0.105,88
ZC3H6,1,-0.961,62.8,-0.0203,70.5
ZC3H6,2,-0.143,79,-0.528,101
ZC3H6,3,2.14,124,0.866,111
CDH16,1,0.922,100,0.211,106
CDH16,2,-0.16,78.7,-0.697,106
CDH16,3,-0.145,79,-0.486,100
LDHAL6A,1,0.645,94.7,0.974,81.9
LDHAL6A,2,-1.48,52.5,-1.97,98.6
LDHAL6A,3,-0.0444,81,0.416,81.1
TLX1NB,1,-1.06,60.9,0.251,63.7
TLX1NB,2,-1.41,53.8,-1.31,84.8
TLX1NB,3,-0.689,68.2,2.87,35.7
EMP3,1,-1.41,53.9,-1.52,89.8
EMP3,2,-0.855,64.9,-1.29,102
EMP3,3,1.62,114,1.34,89.5
DLEC1,1,1.98,121,2.52,69.8
DLEC1,2,-0.998,62,-0.768,84.9
DLEC1,3,-0.0512,80.9,-0.194,95.1
ADAP1,1,1.6,114,1.12,94.6
ADAP1,2,-1.57,50.6,-0.72,68.3
ADAP1,3,-0.274,76.4,0.393,77
TRAM1,1,5.3 (active),187,3.02,94.4
TRAM1,2,-0.251,76.9,-0.771,105
TRAM1,3,0.0496,82.9,-0.295,100
ESPL1,1,-0.855,64.9,-0.532,83.4
ESPL1,2,0.961,101,1.39,78.3
ESPL1,3,-0.0497,80.9,0.81,73
HSPA1A,1,1.36,109,1.23,88.1
HSPA1A,2,1.79,117,1.7,83.9
HSPA1A,3,-0.00137,81.9,0.337,83.7
